Each number is a percent effect as filed. The record does not define 0% and 100%; most values in the screen are far below 50% and negative numbers occur (in some assays of this library far below -100). Compounds were drawn at random from those tested, without regard to their results. Two or more numbers in one place are separate tests of the same structure; such repeats can differ widely.

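Viability assay of Plasmodium falciparum sporozoites; the read-out is not stated. The concentration is filed as 10 mM, unlikely as a test dose, so the dose is not known. Higher reads as lower viability (inferred: compounds with an IC50 in retests scored well above the rest). Strong results were mostly tested again. Of about 34,000 compounds tested this way, about 280 (0.84%) reached 50% or more in at least one test.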

compound,percent effect
CCCn1nc2c(cc1=O)CN(Cc1c(C)noc1C)CC2,2.485
Cc1cc(=O)n(CC(=O)Nc2ccc(Cl)cc2)nc1C,2.018
O=C(c1ccc2c(c1)CCO2)N1CCN(c2cnccn2)CC1,12.26
O=C(O)C(F)(F)F.[H][C@@]12CCN(c3cccc(F)c3)C[C@@]1([H])O[C@H](C(=O)N1CCCC1)C2,22.09
O=C(CC1CCCO1)NCCc1ccccc1Br (centres undefined),-4.72
CCc1ccc(C(=O)NC2CCc3nc(C)cn3C2)o1 (centres undefined),-3.343
c1ccc(SCCN2CCCC(Cn3ccnc3)C2)cc1 (centres undefined),-6.466
[H][C@]12CCN(C(=O)Cc3cccs3)C[C@@]1([H])OCCN(S(C)(=O)=O)C2,13.37
CCN1CCn2c(C)cnc2C12CCN(C(=O)c1ccco1)CC2.O=C(O)C(F)(F)F.O=C(O)C(F)(F)F,-9.747
COc1ccnc(N2CCN(C(=O)c3ccn(C)c(=O)c3)CC2)n1,2.067
Cc1ccccc1CC(C)NC(=O)Nc1cnn(CC(N)=O)c1 (centres undefined),0.4038
O=C(NCCc1cc2nc(-c3ccncc3)ccn2n1)C1CC1,13.74
CCc1nnc2n1CCN(C(=O)c1cc3c(F)cccc3[nH]1)C2,3.253
CN1CCCC1CNC(=O)CCCOc1ccc(F)cc1 (centres undefined),8.244
[H][C@]12CC[C@]([H])(CN(S(=O)(=O)c3cccc(Cl)c3C)C1)N(C)C2=O,-5.074
O=C(CCc1nc(C2CC2)no1)c1ccc2c(c1)OCCO2,8.857 & -28.17
CCc1ccc(CN(Cc2ccccc2)CC(C)CO)nc1 (centres undefined),-6.948 & -4.057
CCc1cc(CN(C)C(=O)c2cc(=O)[nH]c(=O)[nH]2)on1,1.93
CCOc1cc(C(=O)N2CCCC(n3nc(C)nc3C)C2)ccn1 (centres undefined),11.57
Cc1ccc(-c2nc(CNC3CCc4ncnn4C3)co2)c(C)c1 (centres undefined),-7.195
O=C(O)C(F)(F)F.[H][C@@]12CN(C(=O)c3ccoc3)C[C@]1([H])OCCN2C(C)C,-0.3356
Cc1ncsc1C(=O)NCCNC(=O)c1cccs1,-10.28

Some entries from above, unchanged:

For c1ccc(SCCN2CCCC(Cn3ccnc3)C2)cc1 (centres undefined) the result was -6.466%.
For CCCn1nc2c(cc1=O)CN(Cc1c(C)noc1C)CC2 the result was 2.485%.
For CCOc1cc(C(=O)N2CCCC(n3nc(C)nc3C)C2)ccn1 (centres undefined) the result was 11.57%.

Measurements from “University of Dundee, Small-Polar-MMV Screening Library” (2021), ChEMBL document CHEMBL3988442.